Assay [1] addresses S704A-mutant LOXL3-FLAG (UniProt P58215). As to the kind of experiment: co-IP; LOXL3 homodimerization, WT against S704A (Supplementary Fig. 3a); set-up not shown.
The target is the same in assay [2]. Nature of the assay: reverse high-performance liquid chromatography (R-FPLC); LOXL3-FLAG (WT, S704A, S704D) enriched from stably expressing Huh7 cells and analysed for the homodimer; both purified.
The target in another assay is S704D-mutant LOXL3-FLAG (UniProt P58215). The assay is described as above.

Positions count from the first letter of the chain named. Numbers in names are those of the source. These are yes or no findings as the source states them, for the method shown. For part of these data: In cells and extracts the contact can be indirect. Some entries that bind do so weakly or less than the wild type. Tags and fused reporters may be left off the sequences shown.

B1: S704A-mutant LOXL3-FLAG (protein, UniProt P58215 26-753)
chain: SPSPSTGPEKKAGSQGLRFRLAGFPRKPYEGRVEIQRAGEWGTICDDDFTLQAAHILCRELGFTEATGWTHSAKYGPGTGRIWLDNLSCSGTEQSVTECASRGWGNSDCTHDEDAGVICKDQRLPGFSDSNVIEVEHHLQVEEVRIRPAVGWGRRPLPVTEGLVEVRLPDGWSQVCDKGWSAHNSHVVCGMLGFPSEKRVNAAFYRLLAQRQQHSFGLHGVACVGTEAHLSLCSLEFYRANDTARCPGGGPAVVSCVPGPVYAASSGQKKQQQSKPQGEARVRLKGGAHPGEGRVEVLKASTWGTVCDRKWDLHAASVVCRELGFGSAREALSGARMGQGMGAIHLSEVRCSGQELSLWKCPHKNITAEDCSHSQDAGVRCNLPYTGAETRIRLSGGRSQHEGRVEVQIGGPGPLRWGLICGDDWGTLEAMVACRQLGLGYANHGLQETWYWDSGNITEVVMSGVRCTGTELSLDQCAHHGTHITCKRTGTRFTAGVICSETASDLLLHSALVQETAYIEDRPLHMLYCAAEENCLASSARSANWPYGHRRLLRFSSQIHNLGRADFRPKAGRHSWVWHECHGHYHSMDIFTHYDILTPNGTKVAEGHKASFCLEDTECQEDVSKRYECANFGEQGITVGCWDLYRHDIDCQWIDITDVKPGNYILQVVINPNFEVAEADFTNNAMKCNCKYDGHRIWVHNCHIGDAFSEEANRRFERYPGQTSNQII
Regarding B1, the binding entry in the assay with S704A-mutant LOXL3-FLAG [1] and in the assay with S704A-mutant LOXL3-FLAG [2] was “binds weakly” each time.

B2: S704D-mutant LOXL3-FLAG (protein, UniProt P58215 26-753)
chain: B1 chain with A679D
For B2, the binding entry with S704D-mutant LOXL3-FLAG was “binds”.

The values are drawn from publication PMC10229567.
